Test results reported in article PMC3288073.
The exact form of at least one protein or probe is not confirmed. At least one verdict was read from the data and is not stated in words by the source.

Tested on: thrombin (Recothrom), recombinant human (Homo sapiens)
Test: BLI
Conditions: biotinylated aptamer on SA tip, 30 C, BLI: Octet RED96, SA tips, buffer not stated, recombinant protein, folded or branched DNA

Binding result, binds:
ACCCGTGGTAGGGTAGGATGGGGTGGT [Aptamer 30-38/27]
AGATGCCTGTCGAGCATGCTGTGAATAGGTAGGGTCGGATGGGCTACGGTGTAGCTAAACTGCTTTGTCGACGGG [Aptamer 30-8]
AGATGCCTGTCGAGCATGCTGTTGTGGTAGGGTTAGGGATGGTAGCGGTTGTAGCTAAACTGCTTTGTCGACGG [Aptamer 30-14]
CAGTCCGTGGTAGGGCAGGTTGGGGTGACTTCGTGGAA [Aptamer 60-18/38]
TACCGTGGTAGGGAAGGTTGGAGTGTA [Aptamer 30-16/27]
